# Reference: the supplement of paper PMC4635364
# Where a name gives a salt, the structure may show the parent alone. Some of the results follow. This data set is noisy: repeats of one test often differ as much as different tests do.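 Cells: ReNCell VM human fetal ventral-midbrain neural progenitors, differentiated mitogen-free. Blinded raters compared doublecortin-stained (early neurons) or tyrosine hydroxylase-stained (dopaminergic neurons) images with untreated wells, where 0 means no change. After repeats and both raters were averaged, compounds scoring 2 or above became hits for retesting.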
# Columns and labels:
# [1] = system: ReNCell VM; assay: neuronal differentiation score (DCX+ cell fraction vs untreated, manual image score) (score (-3 to 3)); higher = more neuronal differentiation; conditions: 2 uM, 2 weeks
# [2] = system: ReNCell VM; assay: dopaminergic neuron differentiation score (TH+ cell fraction vs untreated, manual image score) (score (0 to 3)); higher = more TH+ dopaminergic neuron differentiation; conditions: 2 uM, 4 weeks, BDNF 10 ng/ml + GDNF 10 ng/ml
compound,measurement,setting,value
C=CC(N)CCC(=O)O (stereo not given),neuronal differentiation score,[1]; library: Spectrum,inactive: 0
same,dopaminergic neuron differentiation score,[2]; library: Spectrum,inactive: 0
O=C(Nc1cccc(C(=O)Nc2ccc(S(=O)(=O)O)c3cc(S(=O)(=O)O)cc(S(=O)(=O)O)c23)c1)Nc1cccc(C(=O)Nc2ccc(S(=O)(=O)O)c3cc(S(=O)(=O)O)cc(S(=O)(=O)O)c23)c1,neuronal differentiation score,[1]; library: LOPAC,inactive: -1
same,dopaminergic neuron differentiation score,[2]; library: LOPAC,inactive: 0
CC12CCCC(O)(C1)C1CC(C)(C)C1CC2 (stereo not drawn) [beta-CARYOPHYLLENE ALCOHOL],neuronal differentiation score,[1]; library: Spectrum,inactive: 0
same,dopaminergic neuron differentiation score,[2]; library: Spectrum,inactive: 0
COc1ccccc1OCC(O)CO (stereo not given) [Guaifenesin],neuronal differentiation score,[1]; library: Prestwick,inactive: 0
same,dopaminergic neuron differentiation score,[2]; library: Prestwick,inactive: 0
COc1ccc(-c2cc(C(F)F)nn2-c2ccc(S(N)(=O)=O)cc2)cc1F,neuronal differentiation score,[1]; library: Spectrum,inactive: -1
same,dopaminergic neuron differentiation score,[2]; library: Spectrum,inactive: 0
COc1ccccc1N1CCN(CCN(C(=O)c2ccc(I)cc2)c2ccccn2)CC1 [p-MPPI hydrochloride],neuronal differentiation score,[1]; library: LOPAC,inactive: 0
same,dopaminergic neuron differentiation score,[2]; library: LOPAC,inactive: 0
COc1c(CC(=O)c2cc3c(cc2O)OC(C)(C)C(O)C3)ccc2c1C=CC(C)(C)O2 (stereo not given),neuronal differentiation score,[1]; library: Spectrum,inactive: 0
same,dopaminergic neuron differentiation score,[2]; library: Spectrum,inactive: 0
COc1c2ccoc2cc2oc(C)cc(=O)c12 [5-methoxy-2-methylfuranochromone],neuronal differentiation score,[1]; library: Phytochemical,inactive: 0
same,dopaminergic neuron differentiation score,[2]; library: Phytochemical,inactive: 0
CC(=O)Nc1nnc(S(N)(=O)=O)s1,neuronal differentiation score,[1]; library: Spectrum,inactive: 0
same,dopaminergic neuron differentiation score,[2]; library: Spectrum,inactive: 0
CC(=O)O[C@H]1C(=O)[C@@]2(C)[C@H]([C@H](OC(=O)c3ccccc3)[C@]3(O)C[C@H](OC(=O)[C@H](O)[C@@H](NC(=O)c4ccccc4)c4ccccc4)C(C)=C1C3(C)C)[C@]1(OC(C)=O)CO[C@@H]1C[C@@H]2O,neuronal differentiation score,[1]; library: Spectrum,inactive: 0
same,dopaminergic neuron differentiation score,[2]; library: Spectrum,inactive: 0
CC(=O)N[C@@H](CC(C)C)C(=O)O,neuronal differentiation score,[1]; library: Spectrum,inactive: 0
same,dopaminergic neuron differentiation score,[2]; library: Spectrum,active: 3
OC(Cn1cncn1)(Cn1cncn1)c1ccc(F)cc1F [Fluconazole],neuronal differentiation score,[1]; library: Prestwick,inactive: 0
same,dopaminergic neuron differentiation score,[2]; library: Prestwick,inactive: 0
C[Se]CC[C@H](N)C(=O)O,neuronal differentiation score,[1]; library: Spectrum,inactive: 0
same,dopaminergic neuron differentiation score,[2]; library: Spectrum,inactive: 0
CC1=C(/C=C/C(C)=C/C=C/C(C)=C\C(=O)O)C(C)(C)CCC1 [13-cis-retinoic acid],neuronal differentiation score,[1]; library: LOPAC,active: 2
same,dopaminergic neuron differentiation score,[2]; library: LOPAC,inactive: 0
COc1ccc2c(c1)OC[C@H]1c3cc4c(cc3O[C@@H]21)OCO4 [pterocarpin methylether],neuronal differentiation score,[1]; library: Natural,inactive: 0
same,dopaminergic neuron differentiation score,[2]; library: Natural,inactive: 0
NS(=O)(=O)c1cc2c(cc1C(F)(F)F)NC(Cc1ccccc1)NS2(=O)=O (stereo not given) [Bendroflumethiazide],neuronal differentiation score,[1]; library: Prestwick,inactive: 0
same,dopaminergic neuron differentiation score,[2]; library: Prestwick,inactive: 0
COc1cc2c(cc1OC)-c1cc3ccc(OC)c(OC)c3c[n+]1CC2 [Palmatine chloride],neuronal differentiation score,[1]; library: Phytochemical,inactive: 0
same,dopaminergic neuron differentiation score,[2]; library: Phytochemical,inactive: 0
S=c1[nH]cnc2nc[nH]c12 [Mercaptopurine],neuronal differentiation score,[1]; library: Prestwick,inactive: 0
same,dopaminergic neuron differentiation score,[2]; library: Prestwick,inactive: 0
C#C[C@]1(OC(C)=O)CC[C@H]2[C@@H]3CCC4=C[C@@H](OC(C)=O)CC[C@@H]4[C@H]3CC[C@@]21C [Ethynodiol diacetate],neuronal differentiation score,[1]; library: Prestwick,inactive: 0
same,dopaminergic neuron differentiation score,[2]; library: Prestwick,inactive: 0
COc1ccc2cccc(N3CCN(CCNC(=O)c4ccc(F)cc4)CC3)c2c1,neuronal differentiation score,[1]; library: Tocriscreen,inactive: 0
same,dopaminergic neuron differentiation score,[2]; library: Tocriscreen,inactive: 0
Nc1ncnc2c1c(-c1ccc(Oc3ccccc3)cc1)cn2C1CCCC1,neuronal differentiation score,[1]; library: LOPAC,inactive: 0
same,dopaminergic neuron differentiation score,[2]; library: LOPAC,inactive: 0
CN1CCCN=C1/C=C/c1cccc(O)c1,neuronal differentiation score,[1]; library: Spectrum,inactive: 0
same,dopaminergic neuron differentiation score,[2]; library: Spectrum,inactive: 0
CC(=O)NCCc1c[nH]c2ccc(O)cc12 [N-Acetyl-5-hydroxytryptamine],neuronal differentiation score,[1]; library: LOPAC,inactive: 0
same,dopaminergic neuron differentiation score,[2]; library: LOPAC,inactive: 0
CC1(C)[C@H]2CC[C@]1(CS(=O)(=O)O)C(=O)C2=Cc1ccc(C=C2C(=O)[C@@]3(CS(=O)(=O)O)CC[C@@H]2C3(C)C)cc1,neuronal differentiation score,[1]; library: Spectrum,inactive: 0
same,dopaminergic neuron differentiation score,[2]; library: Spectrum,inactive: 0
COCCCOc1cc(C[C@@H](C[C@H](N)[C@@H](O)C[C@H](C(=O)NCC(C)(C)C(N)=O)C(C)C)C(C)C)ccc1OC,neuronal differentiation score,[1]; library: Spectrum,inactive: 0
same,dopaminergic neuron differentiation score,[2]; library: Spectrum,inactive: 0
COc1cc2ncnc(Nc3ccc(F)c(Cl)c3)c2cc1OCCCN1CCOCC1,neuronal differentiation score,[1]; library: Spectrum,inactive: 0
same,dopaminergic neuron differentiation score,[2]; library: Spectrum,inactive: 0
CCCCOC(=O)c1ccc(N)cc1,neuronal differentiation score,[1]; library: Spectrum,inactive: 1
same,dopaminergic neuron differentiation score,[2]; library: Spectrum,inactive: 0
COc1cc(C(=O)NCc2ccc(OCCN(C)C)cc2)cc(OC)c1OC [Trimethobenzamide hydrochloride],neuronal differentiation score,[1]; library: Prestwick,inactive: 0
same,dopaminergic neuron differentiation score,[2]; library: Prestwick,inactive: 1
COc1cc2c(cc1OC)C1(O)C(=O)c3ccc(O)c(C(=O)O)c3OC1CO2 (stereo not given),neuronal differentiation score,[1]; library: Spectrum,inactive: 0
same,dopaminergic neuron differentiation score,[2]; library: Spectrum,inactive: 0
Cc1cc2nc3c(=O)[nH]c(=O)nc-3n(C[C@H](O)[C@H](O)[C@H](O)CO)c2cc1C [Riboflavine],neuronal differentiation score,[1]; library: Phytochemical,inactive: 0
same,dopaminergic neuron differentiation score,[2]; library: Phytochemical,inactive: 0

# A different layout for some results above.
compound | measurement | setting | value
C[Se]CC[C@H](N)C(=O)O | neuronal differentiation score | [1]; library: Spectrum | inactive: 0
same | dopaminergic neuron differentiation score | [2]; library: Spectrum | inactive: 0
CC1=C(/C=C/C(C)=C/C=C/C(C)=C\C(=O)O)C(C)(C)CCC1 [13-cis-retinoic acid] | neuronal differentiation score | [1]; library: LOPAC | active: 2
